Assay results as given in PMC2680859.
Results are given in words; binding and its absence hold for the method and conditions named. In cells and extracts the contact can be indirect. These calls come from enrichment with a bait or labelling near it, and not all partners need be listed.

B1: Hrp59 (protein, UniProt Q9VHB6 1-327)
chain: MEMQLGAMLYVYKGEYGLPSIDFECLRALCLLRFTRCPMDVQTSSNPLRSGAGKLPYLQIGNQKFAGYRQIKRVLDLEGYPIDAHLSTKQKHLSTAYANWVFTNLHAYYHYFLFGEPHNFDTTTRGLYAKRTPFPFNFYYPSSYQREACDVVQVMAGFDVNDKLDKHEGDYLVVNAKKVVNLLSRKLGRKVWFFGDTYSEFDAIVYSYLAIIFKIALPNNPLQNHIKGCQNLVNFINRITKDIFRIEGYSSVKLTKTPSGTEASLTASERKFLDSELNTKIVAGVGAVLAMGAFAAWRGIYNQLTTRSSTDYDGIDYEDDEMEEGLD
B2: RpS3A (protein, UniProt P55830 1-268)
chain: MAVGKNKGLSKGGKKGGKKKVVDPFSRKDWYDVKAPNMFQTRQIGKTLVNRTQGQRIASDYLKGRVFEVSLADLQKDIDPERSFRKFRLIAEDVQDRNVLCNFHGMDLTTDKYRSMVKKWQTLIEAIVEAKTVDGYLLRVFCIGFTAKDQQSQRKTCYAQQSQVRKIRARMTDIITNEVSGADLKQLVNKLALDSIAKDIEKSCQRIYPLHDVYIRKVKVLKKPRFDVSKLLELHGDGGGKSVEAVVSSEGAVIDRPEGYEPPVQEAV
B3: RpS4 (protein, UniProt P41042 1-261)
chain: MARGPKKHLKRLAAPKAWMLDKLGGVFAPRPSTGPHKLRESLPLLIFLRNRLKYALNGAEVTKIVMQRLVKVDGKVRTDPTYPAGYMDVITLEKTGEFFRLVYDVKGRFVIHRISAEEAKYKLCKVKKTQLGAKGVPFLVTHDGRTIRYPDPLIHANDSVQVDIASGKITDYIKFDSGNLCMITGGRNLGRVGTVVNRERHPGSFDIVHIKDSQGHVFATRLTNVFIIGKGNKPYISLPKGKGVKLSIAEERDKRLAAKTH
B4: Argonaute 2 (protein, UniProt Q9VUQ5 1-1214)
chain: MGKKDKNKKGGQDSAAAPQPQQQQKQQQQRQQQPQQLQQPQQLQQPQQLQQPQQQQQQQPHQQQQQSSRQQPSTSSGGSRASGFQQGGQQQKSQDAEGWTAQKKQGKQQVQGWTKQGQQGGHQQGRQGQDGGYQQRPPGQQQGGHQQGRQGQEGGYQQRPPGQQQGGHQQGRQGQEGGYQQRPSGQQQGGHQQGRQGQEGGYQQRPPGQQQGGHQQGRQGQEGGYQQRPSGQQQGGHQQGRQGQEGGYQQRPPGQQQGGHQQGRQGQEGGYQQRPPGQQQGGHEQGRQGQEGGYQQRPSGQQQGGHQQGRQGQEGGYQQRPSGQQQGGHQQGRQGQEGGYQQRPSGQQQGGHQQGRQGQEGGYQQRPPGQQPNQTQSQGQYQSRGPPQQQQAAPLPLPPQPAGSIKRGTIGKPGQVGINYLDLDLSKMPSVAYHYDVKIMPERPKKFYRQAFEQFRVDQLGGAVLAYDGKASCYSVDKLPLNSQNPEVTVTDRNGRTLRYTIEIKETGDSTIDLKSLTTYMNDRIFDKPMRAMQCVEVVLASPCHNKAIRVGRSFFKMSDPNNRHELDDGYEALVGLYQAFMLGDRPFLNVDISHKSFPISMPMIEYLERFSLKAKINNTTNLDYSRRFLEPFLRGINVVYTPPQSFQSAPRVYRVNGLSRAPASSETFEHDGKKVTIASYFHSRNYPLKFPQLHCLNVGSSIKSILLPIELCSIEEGQALNRKDGATQVANMIKYAATSTNVRKRKIMNLLQYFQHNLDPTISRFGIRIANDFIVVSTRVLSPPQVEYHSKRFTMVKNGSWRMDGMKFLEPKPKAHKCAVLYCDPRSGRKMNYTQLNDFGNLIISQGKAVNISLDSDVTYRPFTDDERSLDTIFADLKRSQHDLAIVIIPQFRISYDTIKQKAELQHGILTQCIKQFTVERKCNNQTIGNILLKINSKLNGINHKIKDDPRLPMMKNTMYIGADVTHPSPDQREIPSVVGVAASHDPYGASYNMQYRLQRGALEEIEDMFSITLEHLRVYKEYRNAYPDHIIYYRDGVSDGQFPKIKNEELRCIKQACDKVGCKPKICCVIVVKRHHTRFFPSGDVTTSNKFNNVDPGTVVDRTIVHPNEMQFFMVSHQAIQGTAKPTRYNVIENTGNLDIDLLQQLTYNLCHMFPRCNRSVSYPAPAYLAHLVAARGRVYLTGTNRFLDLKKEYAKRTIVPEFMKKNPMYFV

Target: HA-tagged Zn72D (Drosophila)
Assay: affinity purification with mass spectrometry; large scale IP: 45 mg clarified S2 cell extract (cells expressing HA-Zn72D; wild-type S2 cells as control) on protein G Dynabeads with HA.11 antibody; lysis buffer 50 mM Tris pH 7.4, 150 mM NaCl, 1 mM EDTA, 0.1% TritonX-100; overnight at 4 degrees C; SDS-PAGE, in-gel digestion, LC-MS-MS

| binding | Binder |
| --- | --- |
| binds | B1 |
| binds | B2 |
| binds | B3 |
| binds | B4 |
